The values below come from the supplement of paper PMC3682954.

The assay relates to RAW 264.7. As to the kind of experiment: cell viability (MTT) relative to vehicle control; higher = more viable cells. The note with it: stimulus: HMGB1 5 ug/ml, 18 h.
Where [1] appears, read: compound concentration: 1 ug/ml.

As usually defined, the cell viability is a read-out of living cells in per cent, often relative to untreated cells.

Structures are written as SMILES. Counter-ions that a name gives are not always drawn. ± gives the standard deviation of the averaged measurements. The list shows a part of the results. Repeats are few or missing, and single values can be far off.

With `COC(=O)C1=C(C)NC(C)=C(C(=O)OCCN2CCN(C(c3ccccc3)c3ccccc3)CC2)C1c1cccc([N+](=O)[O-])c1` (stereo unspecified) [Manidipine], the cell viability (compound concentration: 3 uM) was 128%.

As to `COC(c1ccccc1)(c1ccccc1)[C@H](Oc1nc(C)cc(C)n1)C(=O)O` [Ambrisentan], the cell viability (compound concentration: 3 uM) was 92.4%.

As to `C[N+]1(C)[C@@H]2CC[C@H]1C[C@@H](OC(=O)C(O)c1ccccc1)C2` (stereo partly specified), the cell viability (compound concentration: 3 uM) worked out at 103%.

With `Cc1c(C)c2c(c(C)c1O)CCC(C)(COc1ccc(CC3SC(=O)NC3=O)cc1)O2` (stereo unspecified) [Troglitazone], for the setting “compound concentration: 3 uM”, the cell viability amounted to 115 ± 3.5%.

Regarding `Cc1ccc(O)c(N=Nc2ccccc2)n1`, the cell viability (compound concentration: 3 uM) worked out at 115%.

As to `CC(C(=O)O)c1ccc2c(c1)Cc1cccnc1O2` (stereo unspecified) [Pranoprofen], the cell viability (compound concentration: 3 uM) is 114 ± 5.6%.

As for `C[C@H]1COc2c(C3(N)CC3)c(F)cc3c(=O)c(C(=O)O)cn1c23`, where the note is “compound concentration: 3 uM”, the cell viability worked out at 89.1%.

`C[C@H]1COc2c(C3(N)CC3)c(F)cc3c(=O)c(C(=O)O)cn1c23` [Pazufloxacin]: the cell viability (compound concentration: 3 uM) came to 114%.

Take `CC(C)(C)C(=O)Oc1ccc(S(=O)(=O)Nc2ccccc2C(=O)NCC(=O)O)cc1` [Sivelestat sodium salt hydrate]: where the note is “compound concentration: 3 uM”, the cell viability was found to be 114%.

Regarding `CSc1ccc2c(c1)C(N1CCN(C)CC1)Cc1ccccc1S2` (stereo unspecified) [Methiothepin mesylate], where the note is “compound concentration: 3 uM”, the cell viability turned out to be 108%.

As to `CSc1ccc2c(c1)C(N1CCN(C)CC1)Cc1ccccc1S2` (stereo unspecified) [Methiothepin], the cell viability (compound concentration: 3 uM) is 106%.

As for `CSc1ccc2c(c1)C(N1CCN(C)CC1)Cc1ccccc1S2` (stereo unspecified), where the note is “compound concentration: 3 uM”, the cell viability came out at 106%.

With `CSc1ccc2c(c1)C(N1CCN(C)CC1)Cc1ccccc1S2` (stereo unspecified) [Methiothepin maleate], the cell viability (compound concentration: 3 uM) was 89.4%.

Regarding `C[N+]1(C)[C@@H]2C[C@@H](OC(=O)C(O)(c3cccs3)c3cccs3)C[C@H]1[C@@H]1O[C@@H]12` [Tiotropium Bromide], the cell viability (compound concentration: 3 uM) was found to be 102%.

In the case of `CC(=O)Nc1ccccc1`, the cell viability (compound concentration: 3 uM) was 105%.

`COC(=O)[C@H]1[C@H]2C[C@H]3c4[nH]c5ccccc5c4CCN3C[C@@H]2CC[C@@H]1O` [Corynanthine]: under setting [1], the cell viability was 90.2%.

In the case of `COC(=O)[C@H]1[C@H]2C[C@H]3c4[nH]c5ccccc5c4CCN3C[C@@H]2CC[C@@H]1O` [Corynanthine hydrochloride], the cell viability under setting [1] amounted to 85.5%.

Turning to `COc1ccc2c(c1OC)C(=O)OC2C1c2c(cc3c(c2OC)OCO3)CCN1C` [(S,R)-Noscapine], the cell viability under setting [1] amounted to 96.7%.

Regarding `N=C(N)NS(=O)(=O)c1ccc(N)cc1`, for the setting “compound concentration: 3 uM”, the cell viability was 112 ± 2.5%.

Turning to `N=C(N)NS(=O)(=O)c1ccc(N)cc1` [Sulfaguanidine], the cell viability (compound concentration: 3 uM) was found to be 87.8%.

`O=c1[nH]c(=O)n([C@@H]2O[C@H](CO)[C@@H](O)[C@H]2O)cc1Br` [5-Bromouridine]: under setting [1], the cell viability amounted to 93.1%.

On to `CC1=C(/C=C/C(C)=C/C=C/C(C)=C/C=C/C=C(C)/C=C/C=C(C)/C=C/C2=C(C)C(=O)[C@@H](O)CC2(C)C)C(C)(C)C[C@H](O)C1=O` [Astaxanthin], for which the cell viability (compound concentration: 3 uM) is 108%.

Regarding `O=C(O)[C@H]1NCCC[C@H]1C(=O)O` (racemic) [(±)-cis-Piperidine-2,3-dicarboxylic acid], the cell viability (compound concentration: 3 uM) amounted to 96.8%.

As to `CC(=O)Oc1ccccc1C(=O)O`, under “compound concentration: 3 uM”, the cell viability came out at 107%.

Take `CC(=O)Oc1ccccc1C(=O)O` [Acetylsalicylic acid]: where the note is “compound concentration: 3 uM”, the cell viability turned out to be 108 ± 16%.

With `CC(=O)Oc1ccccc1C(=O)O` [Acetylsalicylic Acid], the cell viability (compound concentration: 3 uM) was determined as 106%.

Take `NC(=O)C1=CN(C2OC(COP(=O)(O)OP(=O)(O)OC[C@H]3O[C@@H](n4cnc5c(N)ncnc54)C(OP(=O)(O)O)[C@H]3O)C(O)C2O)C=CC1` (stereo partly specified) [NADPH tetrasodium]: where the note is “compound concentration: 3 uM”, the cell viability is 113%.

On to `CC(C)=CC[C@@H](O)C1=CC(=O)c2c(O)ccc(O)c2C1=O` [Shikonin], for which the cell viability (compound concentration: 3 uM) worked out at 14.5%.

For `CC(O)C(O)[C@H]1CNc2nc(N)[nH]c(=O)c2N1` (stereo partly drawn) [(6R)-5,6,7,8-Tetrahydro-L-biopterin hydrochloride], the cell viability (compound concentration: 3 uM) is 108%.

With `NC(=O)c1cc[n+](CC2=C(C(=O)[O-])N3C(=O)[C@@H](NC(=O)[C@@H](c4ccccc4)S(=O)(=O)O)[C@H]3SC2)cc1` [Cefsulodin sodium salt], the cell viability (compound concentration: 3 uM) stood at 93.2%.

With `CC1=C(/C=C/C(C)=C/C=C/C(C)=C/C(=O)O)C(C)(C)CCC1` [Retinoic acid], the cell viability (compound concentration: 3 uM) is 118 ± 9.3%.

With `CC1=C(/C=C/C(C)=C/C=C/C(C)=C/C(=O)O)C(C)(C)CCC1`, the cell viability (compound concentration: 3 uM) worked out at 109 ± 1.6%.

In the case of `CC1=C(/C=C/C(C)=C/C=C/C(C)=C/C(=O)O)C(C)(C)CCC1` [Retinoic Acid], the cell viability (compound concentration: 3 uM) stood at 122%.

In the case of `NC[C@@H]1CC[C@@H](N)[C@@H](O[C@H]2[C@H](O)[C@@H](O[C@H]3O[C@H](CO)[C@@H](O)[C@H](N)[C@H]3O)[C@H](N)C[C@@H]2N)O1`, the cell viability (compound concentration: 3 uM) was found to be 111%.

For `CCC1(c2ccccc2)NC(=O)N(C)C1=O` (stereo unspecified) [Mephenytoin], the cell viability (compound concentration: 3 uM) turned out to be 103 ± 8.1%.

With `N[C@@H](CCC(=O)N[C@@H](CS)C(=O)NCC(=O)O)C(=O)O`, the cell viability (compound concentration: 3 uM) came to 109%.

With `CC1=C(C(=O)O)N2C(=O)[C@@H](NC(=O)[C@H](N)C3=CCC=CC3)[C@H]2SC1` [Cephradine], where the note is “compound concentration: 3 uM”, the cell viability was 105%.

With `CC1=C(C(=O)O)N2C(=O)[C@@H](NC(=O)[C@H](N)C3=CCC=CC3)[C@H]2SC1`, the cell viability (compound concentration: 3 uM) came to 108%.

For the molecule `COc1cc(C(=O)NCCCCCC(=O)O)cc(OC)c1OC`, the cell viability (compound concentration: 3 uM) was determined as 108%.

As to `CC(=O)OCC1OC(Oc2cc(OC(C)=O)c3c(=O)cc(-c4ccc(OC(C)=O)c(OC(C)=O)c4)oc3c2)C(OC(C)=O)C(OC(C)=O)C1OC(C)=O` (stereo unspecified), the cell viability under setting [1] was found to be 99.1%.

With `NC(=O)CNCCC(c1ccccc1)c1ccccc1` [N-(3,3-Diphenylpropyl)glycinamide], the cell viability (compound concentration: 3 uM) worked out at 105%.
